The chains behind the UniProt entries cited, without tags or fusion partners. Residues count along the entry.
UniProt P20152, 2-466: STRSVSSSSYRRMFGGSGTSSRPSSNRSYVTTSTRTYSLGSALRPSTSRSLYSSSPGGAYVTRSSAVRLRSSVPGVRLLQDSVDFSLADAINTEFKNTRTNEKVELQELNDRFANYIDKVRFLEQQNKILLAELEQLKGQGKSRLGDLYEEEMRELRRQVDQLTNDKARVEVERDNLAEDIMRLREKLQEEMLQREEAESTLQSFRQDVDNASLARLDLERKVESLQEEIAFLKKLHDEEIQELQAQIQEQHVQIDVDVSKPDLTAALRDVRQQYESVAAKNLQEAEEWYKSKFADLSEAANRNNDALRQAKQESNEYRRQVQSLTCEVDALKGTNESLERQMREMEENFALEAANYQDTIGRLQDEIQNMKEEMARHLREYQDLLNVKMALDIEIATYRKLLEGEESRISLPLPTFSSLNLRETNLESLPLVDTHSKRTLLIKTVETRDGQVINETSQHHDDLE

According to patent US20220175935:

What was measured:
[1] = target: Vimentin (VIM) (UniProt P20152); assay: flow cytometry; conditions: 2'-F (2'-fluoro-RNA, DuraScribe T7 transcription); irrelevant-protein beads as control; target found by aptamer pulldown/MS; purified recombinant protein; label: Cy3
[2] = target: T1, Annexin A4 (ANXA4) (UniProt P97429); assay: flow cytometry; conditions: 2'-F (2'-fluoro-RNA, DuraScribe T7 transcription); irrelevant-protein beads as control; target found by aptamer pulldown/MS; purified recombinant protein; label: Cy3
T1 sequence (looked up, limits assumed): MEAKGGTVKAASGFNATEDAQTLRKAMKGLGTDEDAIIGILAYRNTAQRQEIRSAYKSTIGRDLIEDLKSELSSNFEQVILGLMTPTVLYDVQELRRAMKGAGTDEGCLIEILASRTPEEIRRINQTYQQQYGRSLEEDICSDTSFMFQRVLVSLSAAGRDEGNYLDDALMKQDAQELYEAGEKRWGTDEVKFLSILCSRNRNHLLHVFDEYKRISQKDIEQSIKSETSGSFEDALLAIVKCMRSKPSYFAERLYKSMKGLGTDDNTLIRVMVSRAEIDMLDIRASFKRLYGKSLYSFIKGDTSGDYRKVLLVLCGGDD

“GGAGGACGAUGCGGGGAAGCAACACUUAGUCGCGAUUGAUACGUGCGCAGUCAUCAGACGACUCGCUGAGGAUCCGAGA [aptamer 11]”: binds [1].

“GGAGGACGAUGCGGAUUACCAACUUGAACGCCGAGAGUGUGGUCACGUGUUCUGCAGACGACUCGCUGAGGAUCCGAGA [aptamer 3]”: binds [2].

Construct, isoform or probe ends are uncertain for at least one entry. For some assays here: Protein sequences can lack the tags named with them.
